# ± gives the standard deviation of the averaged measurements. Only a part is listed here, and it is no random draw.
# Assays:
# Assay in all cases: NP40-soluble protein abundance relative to vehicle (solubility fold change) (ratio); higher = more soluble protein in presence of ATP
# PREB = molecular target: T1, PREB (UniProt Q9HCU5)
# T1 sequence (whole entry): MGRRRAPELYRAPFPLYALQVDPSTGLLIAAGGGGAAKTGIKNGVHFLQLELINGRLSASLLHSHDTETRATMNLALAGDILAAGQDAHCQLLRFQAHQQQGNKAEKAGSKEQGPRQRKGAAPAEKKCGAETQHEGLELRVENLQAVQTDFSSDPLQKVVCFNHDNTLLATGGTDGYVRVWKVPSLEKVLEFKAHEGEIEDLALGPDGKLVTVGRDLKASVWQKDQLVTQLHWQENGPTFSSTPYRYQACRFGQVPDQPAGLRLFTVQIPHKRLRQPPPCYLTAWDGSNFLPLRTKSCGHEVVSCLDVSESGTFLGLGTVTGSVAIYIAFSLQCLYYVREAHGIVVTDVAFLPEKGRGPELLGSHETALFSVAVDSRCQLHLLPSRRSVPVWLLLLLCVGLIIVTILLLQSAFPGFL
# Outline: (§1)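 Jurkat crude lysate prepared with a Dounce homogeniser was treated at eight concentrations spanning 0.1 to 10 mM, 10 min at room temperature then 3 min at 37 °C. Solubilisation with 0.8% NP40 and benzonase and ultracentrifugation preceded TMT labelling of the supernatant for LC-MS/MS. Fold change against the detergent-processed vehicle was determined per replicate from vsn-normalised intensities, across three independent experiments.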
# PRKRIP1 = molecular target: T2, PRKRIP1 (UniProt Q9H875)
# T2 sequence (whole entry): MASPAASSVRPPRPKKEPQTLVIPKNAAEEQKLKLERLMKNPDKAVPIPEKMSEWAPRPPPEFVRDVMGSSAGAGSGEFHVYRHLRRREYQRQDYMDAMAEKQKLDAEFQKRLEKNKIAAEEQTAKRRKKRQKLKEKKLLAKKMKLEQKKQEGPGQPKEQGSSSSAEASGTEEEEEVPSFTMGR
# Outline: as §1
# RAB3GAP2 = molecular target: T3, RAB3GAP2 (UniProt Q9H2M9)
# T3 sequence (whole entry): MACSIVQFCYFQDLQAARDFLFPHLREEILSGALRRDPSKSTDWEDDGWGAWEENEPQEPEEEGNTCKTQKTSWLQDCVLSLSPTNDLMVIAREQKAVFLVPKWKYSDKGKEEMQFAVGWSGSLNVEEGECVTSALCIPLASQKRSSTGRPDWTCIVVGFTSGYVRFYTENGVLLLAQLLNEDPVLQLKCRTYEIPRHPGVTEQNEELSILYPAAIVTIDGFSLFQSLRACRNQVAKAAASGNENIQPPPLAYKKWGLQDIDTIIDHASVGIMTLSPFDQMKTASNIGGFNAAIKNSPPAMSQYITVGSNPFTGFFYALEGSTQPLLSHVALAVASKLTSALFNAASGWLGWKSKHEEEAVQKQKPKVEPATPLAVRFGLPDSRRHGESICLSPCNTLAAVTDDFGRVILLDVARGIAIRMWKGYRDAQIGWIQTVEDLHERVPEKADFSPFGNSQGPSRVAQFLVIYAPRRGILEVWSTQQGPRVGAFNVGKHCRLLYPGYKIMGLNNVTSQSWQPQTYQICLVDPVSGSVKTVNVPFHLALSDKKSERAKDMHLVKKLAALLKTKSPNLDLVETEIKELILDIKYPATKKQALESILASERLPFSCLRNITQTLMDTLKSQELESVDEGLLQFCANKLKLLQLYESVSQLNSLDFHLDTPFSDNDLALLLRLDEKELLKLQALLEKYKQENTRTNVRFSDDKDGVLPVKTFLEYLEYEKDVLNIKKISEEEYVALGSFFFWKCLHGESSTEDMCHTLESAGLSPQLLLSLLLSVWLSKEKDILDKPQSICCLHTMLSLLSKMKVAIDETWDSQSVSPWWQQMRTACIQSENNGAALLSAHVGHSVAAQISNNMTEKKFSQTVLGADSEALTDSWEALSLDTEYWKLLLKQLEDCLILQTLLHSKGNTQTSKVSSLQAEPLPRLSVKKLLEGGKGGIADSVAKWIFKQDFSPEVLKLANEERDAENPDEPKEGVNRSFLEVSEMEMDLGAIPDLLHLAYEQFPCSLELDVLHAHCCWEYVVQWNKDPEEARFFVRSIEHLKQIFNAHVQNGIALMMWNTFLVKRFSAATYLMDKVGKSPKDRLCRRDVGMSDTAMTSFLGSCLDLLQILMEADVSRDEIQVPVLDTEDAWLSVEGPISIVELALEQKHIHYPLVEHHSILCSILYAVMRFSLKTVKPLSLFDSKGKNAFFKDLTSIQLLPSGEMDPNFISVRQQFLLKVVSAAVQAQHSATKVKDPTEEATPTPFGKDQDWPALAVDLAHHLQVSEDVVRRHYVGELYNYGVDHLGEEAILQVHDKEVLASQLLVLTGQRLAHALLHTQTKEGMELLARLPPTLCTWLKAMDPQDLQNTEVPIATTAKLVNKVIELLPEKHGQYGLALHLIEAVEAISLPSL
# Outline: as §1
# SMYD3 = molecular target: T4, SMYD3 (UniProt Q9H7B4)
# T4 sequence (whole entry): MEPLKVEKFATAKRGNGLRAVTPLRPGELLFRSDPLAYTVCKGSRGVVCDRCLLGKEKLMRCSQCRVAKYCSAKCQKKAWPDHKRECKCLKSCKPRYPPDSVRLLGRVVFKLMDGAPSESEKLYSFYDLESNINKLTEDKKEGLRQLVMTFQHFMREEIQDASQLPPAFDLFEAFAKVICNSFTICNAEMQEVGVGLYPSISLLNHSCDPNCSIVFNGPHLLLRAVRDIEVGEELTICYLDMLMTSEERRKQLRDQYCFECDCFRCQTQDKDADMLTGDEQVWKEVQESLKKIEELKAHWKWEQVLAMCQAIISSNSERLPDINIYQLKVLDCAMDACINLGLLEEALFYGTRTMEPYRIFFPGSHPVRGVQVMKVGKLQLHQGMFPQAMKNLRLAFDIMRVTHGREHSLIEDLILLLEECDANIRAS
# Outline: as §1
# UniProt Q9H078-2 = molecular target: T5, UniProt Q9H078-2
# T5 sequence (whole entry): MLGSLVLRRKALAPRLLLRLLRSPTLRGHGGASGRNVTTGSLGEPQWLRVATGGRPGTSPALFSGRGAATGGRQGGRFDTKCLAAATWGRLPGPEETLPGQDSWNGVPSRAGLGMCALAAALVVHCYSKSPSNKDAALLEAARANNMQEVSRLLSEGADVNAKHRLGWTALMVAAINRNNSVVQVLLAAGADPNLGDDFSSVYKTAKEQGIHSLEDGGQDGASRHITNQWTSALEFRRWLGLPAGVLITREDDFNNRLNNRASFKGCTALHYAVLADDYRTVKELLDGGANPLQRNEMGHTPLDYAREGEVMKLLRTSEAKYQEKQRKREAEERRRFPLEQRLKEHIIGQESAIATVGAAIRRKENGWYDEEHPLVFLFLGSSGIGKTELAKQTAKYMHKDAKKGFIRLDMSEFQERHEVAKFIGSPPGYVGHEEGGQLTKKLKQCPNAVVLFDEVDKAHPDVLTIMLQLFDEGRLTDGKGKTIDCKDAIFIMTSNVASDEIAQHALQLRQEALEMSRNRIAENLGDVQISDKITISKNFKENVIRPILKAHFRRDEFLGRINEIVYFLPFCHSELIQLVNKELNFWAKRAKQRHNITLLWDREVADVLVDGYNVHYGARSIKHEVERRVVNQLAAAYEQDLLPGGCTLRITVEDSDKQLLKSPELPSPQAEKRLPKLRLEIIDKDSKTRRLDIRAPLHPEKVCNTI
# Outline: as §1
compound,measurement,setting,value
Nc1ncnc2c1ncn2[C@@H]1O[C@H](COP(=O)(O)OP(=O)(O)OP(=O)(O)O)[C@@H](O)[C@H]1O [adenosine triphosphate],NP40-soluble protein abundance,PREB; concentration: 6mM,1.02 ± 0.052
same,NP40-soluble protein abundance,PREB; concentration: 8mM,1.02 ± 0.063
same,NP40-soluble protein abundance,PREB; concentration: 10mM,1.02 ± 0.042
same,NP40-soluble protein abundance,PRKRIP1; concentration: 1mM,0.946 ± 0.088
same,NP40-soluble protein abundance,PRKRIP1; concentration: 2mM,0.958 ± 0.06
same,NP40-soluble protein abundance,PRKRIP1; concentration: 4mM,0.954 ± 0.073
same,NP40-soluble protein abundance,PRKRIP1; concentration: 6mM,0.999 ± 0.021
same,NP40-soluble protein abundance,PRKRIP1; concentration: 8mM,0.972 ± 0.021
same,NP40-soluble protein abundance,PRKRIP1; concentration: 10mM,0.907 ± 0.18
same,NP40-soluble protein abundance,RAB3GAP2; concentration: 1mM,1.04 ± 0.055
same,NP40-soluble protein abundance,RAB3GAP2; concentration: 2mM,1.02 ± 0.044
same,NP40-soluble protein abundance,RAB3GAP2; concentration: 4mM,0.99 ± 0.041
same,NP40-soluble protein abundance,RAB3GAP2; concentration: 6mM,0.978 ± 0.064
same,NP40-soluble protein abundance,RAB3GAP2; concentration: 8mM,1.01 ± 0.028
same,NP40-soluble protein abundance,RAB3GAP2; concentration: 10mM,0.99 ± 0.031
same,NP40-soluble protein abundance,SMYD3; concentration: 1mM,1.07 ± 0.11
same,NP40-soluble protein abundance,SMYD3; concentration: 2mM,1.06 ± 0.081
same,NP40-soluble protein abundance,SMYD3; concentration: 4mM,1.03 ± 0.1
same,NP40-soluble protein abundance,SMYD3; concentration: 6mM,0.989 ± 0.12
same,NP40-soluble protein abundance,SMYD3; concentration: 8mM,1.09 ± 0.097
same,NP40-soluble protein abundance,SMYD3; concentration: 10mM,1.06 ± 0.071
same,NP40-soluble protein abundance,UniProt Q9H078-2; concentration: 1mM,1.13 ± 0.023
same,NP40-soluble protein abundance,UniProt Q9H078-2; concentration: 2mM,1.1 ± 0.029
same,NP40-soluble protein abundance,UniProt Q9H078-2; concentration: 4mM,1.09 ± 0.047
same,NP40-soluble protein abundance,UniProt Q9H078-2; concentration: 6mM,1.08 ± 0.025
same,NP40-soluble protein abundance,UniProt Q9H078-2; concentration: 8mM,1.11 ± 0.035
same,NP40-soluble protein abundance,UniProt Q9H078-2; concentration: 10mM,1.12 ± 0.046

# 2 consecutive records out of the list so far, quoted:
compound,measurement,setting,value
Nc1ncnc2c1ncn2[C@@H]1O[C@H](COP(=O)(O)OP(=O)(O)OP(=O)(O)O)[C@@H](O)[C@H]1O [adenosine triphosphate],NP40-soluble protein abundance,RAB3GAP2; concentration: 6mM,0.978 ± 0.064
same,NP40-soluble protein abundance,RAB3GAP2; concentration: 8mM,1.01 ± 0.028
